# Measurements published in publication PMC9708603.
# B1: Bcr (protein, UniProt Q6PAJ1 1-1270)
# chain: MVDSVGFAEAWRAQFPDSEPPRMELRSVGDIEQELERCKASIRRLEQEVNQERFRMIYLQTLLAKEKKSYDRQRWGFRRAAQPPDGAAEPRASAPRPPPAPADGADPAPVEESEARPDGEGSPSKGRSASARRPAAAASADRDDRGPPTSVAALRSNFEKIRKGPAQPGSADAEKPFYVNVEFHHERGLVKVNDKEVSDRISSLGSQAMQMERKKSQQSAGQGLGEAPRPHYRGRSSESSCGLDGDYEDAELNPRFLKDNLINANGGNRPPWPPLEYQPYQSIYVGGMMVEGEGKSPLLRSQSTSEQEKRLTWPRRSYSPRSFEDSGGGYTPDCSSNENLTSSEEDFSSGQSSRVSPSPTTYRMFRDKSRSPSQNSQQSFDSSSPPTPQCQKRHRQCQVVVSEATIVGVRKTGQIWPSDGDSTFQGEADSSFGTPPGYGCAADQAEEQRRHQDGLPYIDDSPSSSPHLSSKGRGSLASGALDPTKVSELDLEKGLEMRKWVLSGILASEETYLSHLEALLLPMKPLKAAATTSQPVLTSQQIETIFFKVPELYEIHKEFYDGLFPRVQQWSHQQRVGDLFQKLASQLGVYRAFVDNYGVAMETAEKCCQANAQFAEISENLRARSNKDVKDSTTKNSLETLLYKPVDRVTRSTLVLHDLLKHTPSSHPDHSLLQDALRISQNFLSSINEEITPRRQSMTVKKGEHRQLLKDSFMVELVEGARKLRHIFLFTDLLLCTKLKKQSGGKTQQYDCKWYIPLTDLSFQMVDELEALPNIPLVPDEELDALKIKISQIKSDIQREKRANKGSKVMERLRKKLSEQESLLLLMSPSMAFRVHSRNGKSYTFLISSDYERAEWRESIREQQKKCFKSFSLTSVELQMLTNSCVKLQTVHHIPLTINKEDDESPGLYGFLHVIVHSATGFKQSSNLYCTLEVDSFGYFVNKAKTRVYRDTTEPNWNEEFEIELEGSQTLRILCYEKCYNKMKMTKEDGESADKLMGKGQVQLDPQTLQDRDWQRTVIDMNGIEVKLSVKFTSREFSLKRMPSRKQTGVFGVKIAVVTKRERSKVPYIVRQCVEEIERRGMEEVGIYRVSGVATDIQALKAAFDVNNKDVSVMMSEMDVNAIAGTLKLYFRELPEPLFTDEFYPNFAEGIALSDPVAKESCMLNLLLSLPEANLLTFLFLLDHLKRVAEKETVNKMSLHNLATVFGPTLLRPSEKESKLPANPSQPITMTDSWSLEVMSQVQVLLYFLQLEAIPAPDSKRQSILFSTEV
# modifications: phosphorylated; sites not given
# B2: Git1 (protein, UniProt Q68FF6 1-770)
# chain: MSRKGPRAEVCADCSAPDPGWASISRGVLVCDECCSVHRSLGRHISIVKHLRHSAWPPTLLQMVHTLASNGANSIWEHSLLDPAQVQSGRRKANPQDKVHPIKSEFIRAKYQMLAFVHKLPCRDDDGVTAKDLSKQLHSSVRTGNLETCLRLLSLGAQANFFHPEKGTTPLHVAAKAGQTLQAELLVVYGADPGSPDVNGRTPIDYARQAGHHELAERLVECQYELTDRLAFYLCGRKPDHKNGHYIIPQMADRSRQKCMSQSLDLSELAKAAKKKLQALSNRLFEELAMDVYDEVDRRENDAVWLATQNHSTLVTERSAVPFLPVNPEYSATRNQGRQKLARFNAREFATLIIDILSEAKRRQQGKSLSSPTDNLELSARSQSELDDQHDYDSVASDEDTDQEPLPSAGATRNNRARSMDSSDLSDGAVTLQEYLELKKALATSEAKVQQLMKVNSSLSDELRRLQREIHKLQAENLQLRQPPGPVPPPSLPSERAEHTLMGPGGSTHRRDRQAFSMYEPGSALKPFGGTPGDELATRLQPFHSTELEDDAIYSVHVPAGLYRIRKGVSASSVPFTPSSPLLSCSQEGSRHASKLSRHGSGADSDYENTQSGDPLLGLEGKRFLELSKEDELHPELESLDGDLDPGLPSTEDVILKTEQVTKNIQELLRAAQEFKHDSFVPCSEKIHLAVTEMASLFPKRPALEPVRSSLRLLNASAYRLQSECRKTVPPEPGAPVDFQLLTQQVIQCAYDIAKAAKQLVTITTREKKQ
# modifications: phosphorylated; sites not given
# Biological target: GST-14-3-3
# Experiment: affinity purification with mass spectrometry; KIOSS: glutathione Sepharose 4B beads coated with GST-14-3-3 (500 pmol), incubated with RIPA lysates of mouse striatal/accumbal slices for 60 min at 4 °C; slices treated with PEP-005 or carbachol, with or without GF109203X; bound proteins digested, phosphopeptides enriched on TiO2, LC-MS/MS; only the target purified
binder,measurement,value
B1,binding,binds
B2,binding,binds

# Results are given in words; binding and its absence hold for the method and conditions named. Binding seen in cells or lysates may run through a third protein. These calls come from enrichment with a bait or labelling near it, and not all partners need be listed.
